Experimental data from article PMC3378952 (International Journal for Parasitology, 2012).

Assay: general procedure: solution-phase peptide synthesis; EDCI, HOBt, DIEA
[1] = late stage modification step, HCl
[2] = late stage modification step, HCl salt

Row | Substance | step yield [1] [%] | step yield [2] [%] | further results
1 | K(Boc)IT(tBu)A-OMe | 96 | – | –
2 | PEPTIDE1{[ac].K.I.T.A.[Abu-CO].[NH-cPr]}$$$$V2.0 | – | 95 | –
3 | PEPTIDE1{[ac].K.I.T.A.[Ala-CO].[bAla]}$$$$V2.0 | – | 70 | –
4 | (10S,13S,16S,19S)-10-acetamido-16-((R)-1-tert-butoxyethyl)-13-sec-butyl-2,2,19-trimethyl-4,11,14,17-tetraoxo-3-oxa-5,12,15,18-tetraazaicosan-20-oic acid | 88 | – | –
5 | Fmoc-K(Boc)IT(tBu)A-OMe | – | – | step yield (coupling step, HCl): 61%

Some peptides are written in HELM: one residue between dots, names in brackets for other building blocks, links after the first $. Where no end group is shown, it is not given here. The star is where a group is joined. Fmoc = O=C(OCC1c2ccccc2-c2ccccc21)*; Boc = CC(C)(C)OC(=O)*; tBu = CC(C)(C)*
